No constants are given. Whether binding was seen depends on the method and setting. In cells and extracts the contact can be indirect. Some binding calls cover weakened binding; strength is not graded here.

Amino acid sequences for entries named in this document (tags omitted).
UniProt P10275: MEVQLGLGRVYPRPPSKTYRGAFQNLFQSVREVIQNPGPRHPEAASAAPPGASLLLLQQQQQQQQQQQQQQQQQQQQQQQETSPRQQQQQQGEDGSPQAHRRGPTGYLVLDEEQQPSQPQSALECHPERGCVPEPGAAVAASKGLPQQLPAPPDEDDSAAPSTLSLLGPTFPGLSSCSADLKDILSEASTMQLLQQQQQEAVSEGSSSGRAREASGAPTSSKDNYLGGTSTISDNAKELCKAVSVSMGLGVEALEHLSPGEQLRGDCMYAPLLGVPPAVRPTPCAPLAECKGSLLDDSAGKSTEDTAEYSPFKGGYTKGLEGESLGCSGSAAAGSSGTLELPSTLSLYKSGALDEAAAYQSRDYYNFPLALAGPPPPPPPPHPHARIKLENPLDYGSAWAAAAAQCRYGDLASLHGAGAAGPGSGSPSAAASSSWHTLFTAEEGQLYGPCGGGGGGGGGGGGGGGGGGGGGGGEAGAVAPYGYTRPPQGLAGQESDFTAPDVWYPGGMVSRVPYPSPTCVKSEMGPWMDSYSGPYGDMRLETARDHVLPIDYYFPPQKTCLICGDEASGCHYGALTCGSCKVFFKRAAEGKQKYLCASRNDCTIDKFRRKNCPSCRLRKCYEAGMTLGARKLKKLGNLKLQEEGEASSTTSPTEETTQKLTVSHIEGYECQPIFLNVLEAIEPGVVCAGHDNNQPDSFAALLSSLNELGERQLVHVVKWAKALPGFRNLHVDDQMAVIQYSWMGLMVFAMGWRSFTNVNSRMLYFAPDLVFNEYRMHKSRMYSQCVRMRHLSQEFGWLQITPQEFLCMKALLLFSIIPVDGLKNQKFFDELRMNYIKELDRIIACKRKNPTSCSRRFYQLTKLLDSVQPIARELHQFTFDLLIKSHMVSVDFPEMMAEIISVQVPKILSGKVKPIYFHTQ
UniProt Q8NF99: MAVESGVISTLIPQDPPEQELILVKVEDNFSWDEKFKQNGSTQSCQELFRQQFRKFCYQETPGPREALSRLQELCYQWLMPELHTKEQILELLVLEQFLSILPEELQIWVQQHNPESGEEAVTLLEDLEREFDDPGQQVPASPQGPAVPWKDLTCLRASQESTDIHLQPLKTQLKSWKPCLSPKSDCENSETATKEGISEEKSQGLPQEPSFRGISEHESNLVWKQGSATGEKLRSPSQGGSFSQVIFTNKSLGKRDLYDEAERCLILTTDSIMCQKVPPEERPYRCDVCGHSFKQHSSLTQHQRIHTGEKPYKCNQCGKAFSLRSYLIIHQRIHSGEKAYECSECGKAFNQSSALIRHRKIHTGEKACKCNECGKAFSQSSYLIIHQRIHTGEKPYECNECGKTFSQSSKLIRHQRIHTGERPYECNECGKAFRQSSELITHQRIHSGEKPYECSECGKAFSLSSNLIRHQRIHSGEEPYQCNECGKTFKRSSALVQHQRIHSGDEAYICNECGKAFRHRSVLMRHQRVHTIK

The test concerns the target androgen receptor (AR) with Flag tag (UniProt P10275). Description: co-IP.

Regarding “Zinc Finger Protein 397 (ZNF397), full length, with TY1 tag (from UniProt Q8NF99 1-534)”, the binding entry is listed as “binds”.

Source of the values: doi:10.1101/2023.10.24.563645.
